From the supplement of paper PMC9433722
Where a name gives a salt, the structure may show the parent alone. The list shows a part of the results. Most values come without repeats; read them as rough.

Assays:
[1] = test system: Saos-2; assay: cell viability (CCK-8) relative to DMSO control (% of control); higher = less cytotoxic; details: 10 µM; 48 h
[2] = test system: U2OS; assay: as above; details: 10 µM; 48 h

| Compound | cell viability [1] | cell viability [2] |
| --- | --- | --- |
| CCOC(=O)c1ncn2c1CN(C)C(=O)c1cc(F)ccc1-2 [Flumazenil] | 56.3 | 110 |
| CCCC(CCC)C(=O)O [Valproic acid . sodium salt] | 64.2 | 91.9 |
| C[C@H]1c2cccc(O)c2C(=O)C2=C(O)[C@]3(O)C(=O)C(C(N)=O)=C(O)[C@@H](N(C)C)[C@@H]3[C@@H](O)[C@@H]21 [Doxycycline Monohydrate] | 70.8 | 104 |
| CCN(CC)C(=O)C1(c2ccccc2)CC1CN (stereo unspecified) [Milnacipran·HCl] | 105 | 102 |
| COc1cc([C@@H]2c3cc4c(cc3[C@@H](O[C@@H]3O[C@@H]5CO[C@@H](c6cccs6)O[C@H]5[C@H](O)[C@H]3O)[C@H]3COC(=O)[C@H]23)OCO4)cc(OC)c1O [Teniposide] | 36.4 | 22.3 |
| CO[C@H]1C[C@@H]2CC[C@@H](C)[C@@](O)(O2)C(=O)C(=O)N2CCCC[C@H]2C(=O)O[C@H]([C@H](C)C[C@@H]2CC[C@@H](OC(=O)C(C)(CO)CO)[C@H](OC)C2)CC(=O)[C@H](C)/C=C(\C)[C@@H](O)[C@@H](OC)C(=O)[C@H](C)C[C@H](C)/C=C/C=C/C=C/1C [Temsirolimus] | 92.6 | 53.1 |
| C=C1/C(=C\C=C2/CCC[C@]3(C)[C@@H]([C@H](C)CCCC(C)(C)O)CC[C@@H]23)C[C@@H](O)C[C@@H]1O [1α,25-Dihydroxyvitamin D3] | 68.7 | 117 |
| CC(C)NCC(O)COc1cccc2[nH]ccc12 (stereo unspecified) [Pindolol] | 61.4 | 117 |
| O=c1[nH]cnc2c1ncn2[C@H]1CC[C@@H](CO)O1 [Didanosine] | 66.4 | 112 |
| CCN(CC)C(=S)SSC(=S)N(CC)CC [Disulfiram] | 35 | 94.1 |
| NCCNCCNCCN [Trientine Dihydrochloride] | 104 | 81.9 |
| COc1c(N2CCNC(C)C2)c(F)cc2c(=O)c(C(=O)O)cn(C3CC3)c12 (stereo unspecified) [Gatifloxacin] | 68.2 | 93.4 |
| Fc1ccc([C@@H]2CCNC[C@H]2COc2ccc3c(c2)OCO3)cc1 [Paroxetine·HCl] | 54.6 | 23 |
| CC1(C)O[C@@H]2C[C@H]3[C@@H]4CCC5=CC(=O)CC[C@]5(C)[C@@]4(F)[C@@H](O)C[C@]3(C)[C@]2(C(=O)CCl)O1 [Halcinonide] | 111 | 109 |
| CC(=O)OCC(=O)[C@@]1(O)CC[C@H]2[C@@H]3CCC4=CC(=O)CC[C@]4(C)[C@@]3(F)[C@@H](O)C[C@@]21C [Fludrocortisone Acetate] | 115 | 89.4 |
| Cc1ccc(/C(=C\CN2CCCC2)c2cccc(/C=C/C(=O)O)n2)cc1 [Acrivastine] | 92.5 | 87.6 |
| CC(=O)O[C@]1(C(C)=O)CC[C@H]2[C@@H]3C[C@H](C)C4=CC(=O)CC[C@]4(C)[C@H]3CC[C@@]21C [Medroxyprogesterone Acetate] | 70 | 93.9 |
| CC(C)NCC(O)COc1ccc(CC(N)=O)cc1 (stereo unspecified) [Atenolol] | 68.7 | 103 |
| CCC(=O)NCC[C@@H]1CCc2ccc3c(c21)CCO3 [Ramelteon] | 108 | 101 |
| CC[C@H]1OC(=O)[C@H](C)C(=O)[C@H](C)[C@@H](O[C@@H]2O[C@H](C)C[C@H](N(C)C)[C@H]2O)[C@](C)(OC)C[C@@H](C)C(=O)[C@H](C)[C@H]2N(CCCCn3cnc(-c4cccnc4)c3)C(=O)O[C@]12C [Telithromycin] | 107 | 96.5 |
| O=C(O)c1cc(-c2ccc(F)cc2F)ccc1O [Diflunisal] | 71.4 | 110 |

Whole records from above.
Cc1ccc(/C(=C\CN2CCCC2)c2cccc(/C=C/C(=O)O)n2)cc1 [Acrivastine] is listed with cell viability [1]: 92.5; cell viability [2]: 87.6
CC(=O)O[C@]1(C(C)=O)CC[C@H]2[C@@H]3C[C@H](C)C4=CC(=O)CC[C@]4(C)[C@H]3CC[C@@]21C [Medroxyprogesterone Acetate] is listed with cell viability [1]: 70; cell viability [2]: 93.9
COc1cc([C@@H]2c3cc4c(cc3[C@@H](O[C@@H]3O[C@@H]5CO[C@@H](c6cccs6)O[C@H]5[C@H](O)[C@H]3O)[C@H]3COC(=O)[C@H]23)OCO4)cc(OC)c1O [Teniposide] is listed with cell viability [1]: 36.4; cell viability [2]: 22.3

The results go on:

| Compound | cell viability [1] | cell viability [2] |
| --- | --- | --- |
| C[C@@H](CN1CC(=O)NC(=O)C1)N1CC(=O)NC(=O)C1 [Dexrazoxane] | 114 | 109 |
| CCC[C@@H]1C[C@@H](C(=O)N[C@@H]([C@H]2O[C@H](SC)[C@H](O)[C@@H](O)[C@H]2O)[C@H](C)Cl)N(C)C1 [Clindamycin · HCl] | 64.7 | 88.3 |
| CC(C)OC(=O)C(C)(C)Oc1ccc(C(=O)c2ccc(Cl)cc2)cc1 [Fenofibrate] | 64.7 | 108 |
| COc1ccccc1Oc1c(NS(=O)(=O)c2ccc(C(C)(C)C)cc2)nc(-c2ncccn2)nc1OCCO [Bosentan] | 67.5 | 95.1 |
| COC(=O)[C@H](c1ccccc1Cl)N1CCc2sccc2C1 [Clopidogrel sulfate] | 72.8 | 89.7 |
| CC=CC1=C(C(=O)O)N2C(=O)[C@@H](NC(=O)[C@H](N)c3ccc(O)cc3)[C@H]2SC1 [Cefprozil] | 109 | 93.4 |
| CC(C)(S)[C@@H](N)C(=O)O [Penicillamine (D-Penicillamine)] | 104 | 108 |
| CN[C@@H]1[C@H](O)[C@H](NC)[C@H]2O[C@@]3(O)C(=O)C[C@@H](C)O[C@H]3O[C@@H]2[C@H]1O [Spectinomycin . dihydrochloride] | 61 | 81.1 |
| NC(=O)c1ncn([C@@H]2O[C@H](CO)[C@@H](O)[C@H]2O)n1 [Ribavirin] | 66.5 | 118 |
| C[N+]1(C)CCC(OC(=O)C(O)(c2ccccc2)C2CCCC2)C1 (stereo unspecified) [Glycopyrrolate Iodide] | 108 | 87.5 |
| CC1=C(C(=O)O)N2C(=O)[C@@H](NC(=O)[C@H](N)c3ccc(O)cc3)[C@H]2SC1 [Cefadroxil Monohydrate] | 115 | 55.3 |
| CC[C@@H]1C(=O)OC[C@@H]1Cc1cncn1C [(+)-Pilocarpine . hydrochloride] | 61.8 | 116 |
| CC(C[N+](C)(C)C)OC(N)=O (stereo unspecified) [Bethanechol Chloride] | 121 | 104 |
| O=C(O)COCCN1CCN(C(c2ccccc2)c2ccc(Cl)cc2)CC1 (stereo unspecified) [Cetirizine 2HCl] | 59 | 96.8 |
| COc1cc(CNC(=O)CCCC/C=C/C(C)C)ccc1O [Capsaicin] | 56 | 101 |
| C#C[C@]1(O)CC[C@H]2[C@@H]3CCC4=CCCC[C@@H]4[C@H]3C(=C)C[C@@]21CC [Desogestrel] | 120 | 94.4 |
| CN1C(CCl)Nc2cc(Cl)c(S(N)(=O)=O)cc2S1(=O)=O (stereo unspecified) [Methyclothiazide] | 90 | 100 |
| CC1Cc2ccccc2N1NC(=O)c1ccc(Cl)c(S(N)(=O)=O)c1 (stereo unspecified) [Indapamide] | 65.1 | 93.1 |
| CN1CCc2cccc3c2[C@H]1Cc1ccc(O)c(O)c1-3 [(R)-(-)-Apomorphine·HCl] | 50.4 | 95.7 |
| CC(C)(O)c1ccccc1CC[C@@H](SCC1(CC(=O)O)CC1)c1cccc(/C=C/c2ccc3ccc(Cl)cc3n2)c1 [Montelukast·Na] | 54.1 | 111 |
| CCCCNC(=O)NS(=O)(=O)c1ccc(C)cc1 [Tolbutamide] | 64.7 | 110 |

| Compound | cell viability [1] | cell viability [2] |
| --- | --- | --- |
| Clc1ccccc1CN1CCc2sccc2C1 [Ticlopidine·HCl] | 67.1 | 97.2 |
| CCCCC(C)(O)C/C=C/[C@H]1[C@H](O)CC(=O)[C@@H]1CCCCCCC(=O)OC (mixture of isomers) [Misoprostol] | 64.3 | 98.5 |
| COCCCC/C(=N\OCCN)c1ccc(C(F)(F)F)cc1 [Fluvoxamine Maleate] | 96.9 | 99.1 |
| CCC(C)n1ncn(-c2ccc(N3CCN(c4ccc(OCC5COC(Cn6cncn6)(c6ccc(Cl)cc6Cl)O5)cc4)CC3)cc2)c1=O (stereo unspecified) [Itraconazole] | 62.7 | 65.8 |
| OC(CNCC(O)C1CCc2cc(F)ccc2O1)C1CCc2cc(F)ccc2O1 (stereo unspecified) [Nebivolol·HCl] | 85.6 | 62.5 |
| C[C@H](N)[C@H](O)c1cccc(O)c1 [Metaraminol Bitartrate] | 95.8 | 93.1 |
| CCOC(=O)C1=C(COCCN)NC(C)=C(C(=O)OC)C1c1ccccc1Cl (stereo unspecified) [Amlodipine] | 55.3 | 111 |
| CCc1ccc(CCOc2ccc(CC3SC(=O)NC3=O)cc2)nc1 (stereo unspecified) [Pioglitazone·HCl] | 67.5 | 87.7 |
| CCCN(CCC)S(=O)(=O)c1ccc(C(=O)O)cc1 [Probenecid] | 102 | 79.3 |
| Nc1ccn(C[C@@H](CO)OCP(=O)(O)O)c(=O)n1 [Cidofovir] | 94.3 | 90 |
| COc1cccc2c1C(=O)c1c(O)c3c(c(O)c1C2=O)C[C@@](O)(C(C)=O)C[C@@H]3O[C@H]1C[C@H](N)[C@H](O)[C@H](C)O1 [Daunorubicin . hydrochloride] | 16.2 | 18.3 |
| COc1ccc(-c2ccc3cc(C(=O)O)ccc3c2)cc1C12CC3CC(CC(C3)C1)C2 [Adapalene] | 35.8 | 116 |
| O=S(=O)(O)CCS [Mesna] | 103 | 88.4 |
| Cc1cccc(Nc2ccncc2S(=O)(=O)NC(=O)NC(C)C)c1 [Torsemide] | 105 | 88.5 |
| Nc1ccn([C@@H]2O[C@H](CO)[C@@H](O)C2(F)F)c(=O)n1 [Gemcitabine . hydrochloride] | 42.6 | 84.5 |
| Cc1nnc(C(=O)NC(C)(C)c2nc(C(=O)NCc3ccc(F)cc3)c(O)c(=O)n2C)o1 [Raltegravir potassium] | 107 | 97.2 |
| CC1(C)C[C@@H]1C(=O)N/C(=C\CCCCSC[C@H](N)C(=O)O)C(=O)O [Cilastatin Sodium] | 68.7 | 102 |
| CC(=O)Nc1ccc(O)cc1 [Acetaminophen] | 92.3 | 81.3 |
| Nc1cc(N2CCCCC2)nc(N)[n+]1[O-] [Minoxidil] | 64.2 | 94.1 |
| CN(C)/N=N/c1[nH]cnc1C(N)=O [Dacarbazine] | 69.5 | 77.4 |
| CC[C@H]1OC(=O)[C@H](C)[C@@H](O[C@H]2C[C@@](C)(OC)[C@@H](O)[C@H](C)O2)[C@H](C)[C@@H](O[C@@H]2O[C@H](C)C[C@H](N(C)C)[C@H]2O)[C@](C)(OC)C[C@@H](C)C(=O)[C@H](C)[C@@H](O)[C@]1(C)O [Clarithromycin] | 67.5 | 87.2 |
